These results are taken from article PMC4329010.

Amino acid sequences for entries named in this document (tags omitted).
UniProt O75643: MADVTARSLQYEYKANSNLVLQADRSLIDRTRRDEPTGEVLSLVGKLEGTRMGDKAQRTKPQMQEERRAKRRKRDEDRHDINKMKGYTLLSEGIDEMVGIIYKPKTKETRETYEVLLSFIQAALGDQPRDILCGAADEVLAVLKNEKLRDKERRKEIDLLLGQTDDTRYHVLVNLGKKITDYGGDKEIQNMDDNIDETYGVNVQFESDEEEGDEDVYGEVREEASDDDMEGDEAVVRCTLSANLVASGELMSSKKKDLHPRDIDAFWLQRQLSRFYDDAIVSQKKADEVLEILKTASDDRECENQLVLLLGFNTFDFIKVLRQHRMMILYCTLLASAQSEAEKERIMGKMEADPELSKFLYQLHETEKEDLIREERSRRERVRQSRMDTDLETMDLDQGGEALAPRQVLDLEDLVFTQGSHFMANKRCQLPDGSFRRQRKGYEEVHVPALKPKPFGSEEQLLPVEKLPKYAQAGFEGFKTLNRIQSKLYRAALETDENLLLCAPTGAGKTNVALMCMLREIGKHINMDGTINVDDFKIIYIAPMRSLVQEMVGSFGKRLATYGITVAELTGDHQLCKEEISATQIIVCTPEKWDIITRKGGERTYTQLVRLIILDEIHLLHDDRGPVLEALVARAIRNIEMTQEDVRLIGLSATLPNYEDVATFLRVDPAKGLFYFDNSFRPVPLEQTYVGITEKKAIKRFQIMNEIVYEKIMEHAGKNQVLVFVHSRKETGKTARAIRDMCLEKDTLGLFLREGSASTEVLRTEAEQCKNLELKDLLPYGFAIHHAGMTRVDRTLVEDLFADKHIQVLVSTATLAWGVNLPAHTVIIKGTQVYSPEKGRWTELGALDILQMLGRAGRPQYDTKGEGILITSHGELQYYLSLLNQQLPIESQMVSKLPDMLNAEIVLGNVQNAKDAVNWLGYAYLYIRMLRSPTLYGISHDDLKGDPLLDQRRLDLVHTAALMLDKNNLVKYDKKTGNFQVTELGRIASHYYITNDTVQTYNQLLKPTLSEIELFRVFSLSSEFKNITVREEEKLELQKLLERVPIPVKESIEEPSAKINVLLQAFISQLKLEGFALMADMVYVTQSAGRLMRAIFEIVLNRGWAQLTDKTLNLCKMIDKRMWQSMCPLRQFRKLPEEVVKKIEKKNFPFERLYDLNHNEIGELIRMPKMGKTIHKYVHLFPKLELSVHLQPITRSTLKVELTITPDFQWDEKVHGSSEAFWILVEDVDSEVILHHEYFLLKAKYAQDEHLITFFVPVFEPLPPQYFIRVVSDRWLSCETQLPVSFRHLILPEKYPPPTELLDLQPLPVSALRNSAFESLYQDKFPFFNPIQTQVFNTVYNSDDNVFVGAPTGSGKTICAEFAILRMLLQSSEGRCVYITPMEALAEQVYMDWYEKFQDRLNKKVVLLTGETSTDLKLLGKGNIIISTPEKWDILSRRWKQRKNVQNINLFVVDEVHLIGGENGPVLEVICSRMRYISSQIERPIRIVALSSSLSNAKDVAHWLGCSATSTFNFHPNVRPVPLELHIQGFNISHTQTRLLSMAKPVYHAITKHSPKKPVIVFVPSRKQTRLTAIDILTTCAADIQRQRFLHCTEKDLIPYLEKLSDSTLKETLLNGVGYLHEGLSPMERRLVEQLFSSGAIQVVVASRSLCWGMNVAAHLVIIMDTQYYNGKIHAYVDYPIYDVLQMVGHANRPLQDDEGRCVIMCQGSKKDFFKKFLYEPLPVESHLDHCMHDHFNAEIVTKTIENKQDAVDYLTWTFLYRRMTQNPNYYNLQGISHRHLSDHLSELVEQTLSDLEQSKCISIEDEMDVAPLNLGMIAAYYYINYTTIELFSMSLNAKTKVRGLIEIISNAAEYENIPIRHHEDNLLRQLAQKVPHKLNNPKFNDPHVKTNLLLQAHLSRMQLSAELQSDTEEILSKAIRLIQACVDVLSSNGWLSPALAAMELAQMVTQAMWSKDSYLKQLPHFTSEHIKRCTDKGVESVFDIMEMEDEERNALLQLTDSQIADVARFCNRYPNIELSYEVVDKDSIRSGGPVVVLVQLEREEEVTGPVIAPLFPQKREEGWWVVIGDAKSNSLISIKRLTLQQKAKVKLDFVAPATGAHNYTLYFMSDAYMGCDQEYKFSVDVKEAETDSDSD

These are yes or no findings as the source states them, for the method shown. In cells and extracts the contact can be indirect. A yes stands for co-enrichment or nearness to the bait. Other partners may have been found. Where a sequence is shown, tags or fusion partners need not be part of it.

The assay addresses T1, Flag-SNW1 (human) (UniProt Q13573).
T1 sequence: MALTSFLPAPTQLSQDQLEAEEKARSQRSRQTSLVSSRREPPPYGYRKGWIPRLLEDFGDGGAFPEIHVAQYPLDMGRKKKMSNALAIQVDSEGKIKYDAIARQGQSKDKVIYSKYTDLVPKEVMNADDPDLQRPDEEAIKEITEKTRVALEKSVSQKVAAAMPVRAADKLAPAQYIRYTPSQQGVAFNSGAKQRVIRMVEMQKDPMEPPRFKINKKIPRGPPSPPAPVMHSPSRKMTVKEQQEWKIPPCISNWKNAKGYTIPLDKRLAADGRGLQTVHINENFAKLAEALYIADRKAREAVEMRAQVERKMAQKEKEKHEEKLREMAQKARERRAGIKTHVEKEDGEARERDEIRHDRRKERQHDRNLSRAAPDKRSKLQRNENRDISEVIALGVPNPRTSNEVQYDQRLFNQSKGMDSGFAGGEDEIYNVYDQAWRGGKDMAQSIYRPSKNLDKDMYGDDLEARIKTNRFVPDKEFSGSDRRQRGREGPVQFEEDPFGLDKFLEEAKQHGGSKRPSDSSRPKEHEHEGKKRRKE
Briefly: affinity purification with mass spectrometry; 293T cells constitutively expressing Flag-SNW1 lysed, immunoprecipitated with anti-Flag antibody, eluted with Flag peptide, trypsin digest, LC-MS/MS, Mascot.

Regarding “SNRNP200 (endogenous) (from UniProt O75643 1-2136)”, the binding result is listed as “binds”.
